Measurements from PMC5295437.
Results are given in words; binding and its absence hold for the method and conditions named. Binding seen in cells or lysates may run through a third protein. Some binding calls cover weakened binding; strength is not graded here.

Biological target: T1, Progranulin (PGRN) (human), P28799
T1 chain: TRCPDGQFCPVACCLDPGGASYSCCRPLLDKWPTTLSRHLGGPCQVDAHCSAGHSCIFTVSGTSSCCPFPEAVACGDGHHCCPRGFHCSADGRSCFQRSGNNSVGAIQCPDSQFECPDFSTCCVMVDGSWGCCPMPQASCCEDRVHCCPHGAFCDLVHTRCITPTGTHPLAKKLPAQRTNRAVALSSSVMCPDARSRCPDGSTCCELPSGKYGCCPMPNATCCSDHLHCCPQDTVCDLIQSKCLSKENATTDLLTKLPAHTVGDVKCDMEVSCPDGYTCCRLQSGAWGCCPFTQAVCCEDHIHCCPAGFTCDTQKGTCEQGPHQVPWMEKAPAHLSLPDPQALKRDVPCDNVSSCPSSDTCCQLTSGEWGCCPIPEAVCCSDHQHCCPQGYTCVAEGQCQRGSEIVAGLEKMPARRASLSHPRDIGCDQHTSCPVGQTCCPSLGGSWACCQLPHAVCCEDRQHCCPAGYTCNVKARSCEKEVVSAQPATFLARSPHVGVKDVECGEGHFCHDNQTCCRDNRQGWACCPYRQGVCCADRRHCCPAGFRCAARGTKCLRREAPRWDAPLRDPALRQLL
Test: co-IP; about 500 ug cellular extract of rhPGRN-pretreated HeLa cells incubated with anti-PGRN or control IgG (25 ug/mL) for 1 hr, then protein A/G-agarose at 4°C overnight; bound protein blotted with anti-TNFR1 and anti-TNFR2
Settings: remark: other sources report otherwise

B1: Tumor necrosis factor receptor 2 (TNFR2), P20333 23-461 (receptor)
chain: LPAQVAFTPYAPEPGSTCRLREYYDQTAQMCCSKCSPGQHAKVFCTKTSDTVCDSCEDSTYTQLWNWVPECLSCGSRCSSDQVETQACTREQNRICTCRPGWYCALSKQEGCRLCAPLRKCRPGFGVARPGTETSDVVCKPCAPGTFSNTTSSTDICRPHQICNVVAIPGNASMDAVCTSTSPTRSMAPGAVHLPQPVSTRSQHTQPTPEPSTAPSTSFLLPMGPSPPAEGSTGDFALPVGLIVGVTALGLLIIGVVNCVIMTQVKKKPLCLQREAKVPHLPADKARGTQGPEQQHLLITAPSSSSSSLESSASALDRRAPTRNQPQAPGVEASGAGEARASTGSSDSSPGGHGTQVNVTCIVNVCSSSDHSSQCSSQASSTMGDTDSSPSESPKDEQVPFSKEECAFRSQLETPETLLGSTEEKPLPLGVPDAGMKPS
binding: binds
